Results reported in PubChem BioAssay AID2662 (National Center for Advancing Translational Sciences (NCATS), 2010).
Hit rate of the full screen: of about 290,000 compounds, about 110 (0.038%) were called active. Inconclusive means that the source gave no clear call. Such entries were picked first, then a sample of the others. The call rests on the fitted dose curve; in most records, active means well fitted inhibition curve with a large enough effect in the polarisation, with a control signal flat (not every such curve was filed as active); inconclusive means small, poorly fitted or top-dose-only effect, or effect the other way, or a change in a side signal; inactive means no such curve, though single readings can be large or run the other way; the % refers to the polarisation. Where the call is inconclusive, the potency comes from a doubtful curve fit. “Side channel” marks fits to a control or component signal instead of the main read-out.

Chains of the proteins cited; added tags and fusions are not shown.
UniProt Q03164, whole entry, looked up: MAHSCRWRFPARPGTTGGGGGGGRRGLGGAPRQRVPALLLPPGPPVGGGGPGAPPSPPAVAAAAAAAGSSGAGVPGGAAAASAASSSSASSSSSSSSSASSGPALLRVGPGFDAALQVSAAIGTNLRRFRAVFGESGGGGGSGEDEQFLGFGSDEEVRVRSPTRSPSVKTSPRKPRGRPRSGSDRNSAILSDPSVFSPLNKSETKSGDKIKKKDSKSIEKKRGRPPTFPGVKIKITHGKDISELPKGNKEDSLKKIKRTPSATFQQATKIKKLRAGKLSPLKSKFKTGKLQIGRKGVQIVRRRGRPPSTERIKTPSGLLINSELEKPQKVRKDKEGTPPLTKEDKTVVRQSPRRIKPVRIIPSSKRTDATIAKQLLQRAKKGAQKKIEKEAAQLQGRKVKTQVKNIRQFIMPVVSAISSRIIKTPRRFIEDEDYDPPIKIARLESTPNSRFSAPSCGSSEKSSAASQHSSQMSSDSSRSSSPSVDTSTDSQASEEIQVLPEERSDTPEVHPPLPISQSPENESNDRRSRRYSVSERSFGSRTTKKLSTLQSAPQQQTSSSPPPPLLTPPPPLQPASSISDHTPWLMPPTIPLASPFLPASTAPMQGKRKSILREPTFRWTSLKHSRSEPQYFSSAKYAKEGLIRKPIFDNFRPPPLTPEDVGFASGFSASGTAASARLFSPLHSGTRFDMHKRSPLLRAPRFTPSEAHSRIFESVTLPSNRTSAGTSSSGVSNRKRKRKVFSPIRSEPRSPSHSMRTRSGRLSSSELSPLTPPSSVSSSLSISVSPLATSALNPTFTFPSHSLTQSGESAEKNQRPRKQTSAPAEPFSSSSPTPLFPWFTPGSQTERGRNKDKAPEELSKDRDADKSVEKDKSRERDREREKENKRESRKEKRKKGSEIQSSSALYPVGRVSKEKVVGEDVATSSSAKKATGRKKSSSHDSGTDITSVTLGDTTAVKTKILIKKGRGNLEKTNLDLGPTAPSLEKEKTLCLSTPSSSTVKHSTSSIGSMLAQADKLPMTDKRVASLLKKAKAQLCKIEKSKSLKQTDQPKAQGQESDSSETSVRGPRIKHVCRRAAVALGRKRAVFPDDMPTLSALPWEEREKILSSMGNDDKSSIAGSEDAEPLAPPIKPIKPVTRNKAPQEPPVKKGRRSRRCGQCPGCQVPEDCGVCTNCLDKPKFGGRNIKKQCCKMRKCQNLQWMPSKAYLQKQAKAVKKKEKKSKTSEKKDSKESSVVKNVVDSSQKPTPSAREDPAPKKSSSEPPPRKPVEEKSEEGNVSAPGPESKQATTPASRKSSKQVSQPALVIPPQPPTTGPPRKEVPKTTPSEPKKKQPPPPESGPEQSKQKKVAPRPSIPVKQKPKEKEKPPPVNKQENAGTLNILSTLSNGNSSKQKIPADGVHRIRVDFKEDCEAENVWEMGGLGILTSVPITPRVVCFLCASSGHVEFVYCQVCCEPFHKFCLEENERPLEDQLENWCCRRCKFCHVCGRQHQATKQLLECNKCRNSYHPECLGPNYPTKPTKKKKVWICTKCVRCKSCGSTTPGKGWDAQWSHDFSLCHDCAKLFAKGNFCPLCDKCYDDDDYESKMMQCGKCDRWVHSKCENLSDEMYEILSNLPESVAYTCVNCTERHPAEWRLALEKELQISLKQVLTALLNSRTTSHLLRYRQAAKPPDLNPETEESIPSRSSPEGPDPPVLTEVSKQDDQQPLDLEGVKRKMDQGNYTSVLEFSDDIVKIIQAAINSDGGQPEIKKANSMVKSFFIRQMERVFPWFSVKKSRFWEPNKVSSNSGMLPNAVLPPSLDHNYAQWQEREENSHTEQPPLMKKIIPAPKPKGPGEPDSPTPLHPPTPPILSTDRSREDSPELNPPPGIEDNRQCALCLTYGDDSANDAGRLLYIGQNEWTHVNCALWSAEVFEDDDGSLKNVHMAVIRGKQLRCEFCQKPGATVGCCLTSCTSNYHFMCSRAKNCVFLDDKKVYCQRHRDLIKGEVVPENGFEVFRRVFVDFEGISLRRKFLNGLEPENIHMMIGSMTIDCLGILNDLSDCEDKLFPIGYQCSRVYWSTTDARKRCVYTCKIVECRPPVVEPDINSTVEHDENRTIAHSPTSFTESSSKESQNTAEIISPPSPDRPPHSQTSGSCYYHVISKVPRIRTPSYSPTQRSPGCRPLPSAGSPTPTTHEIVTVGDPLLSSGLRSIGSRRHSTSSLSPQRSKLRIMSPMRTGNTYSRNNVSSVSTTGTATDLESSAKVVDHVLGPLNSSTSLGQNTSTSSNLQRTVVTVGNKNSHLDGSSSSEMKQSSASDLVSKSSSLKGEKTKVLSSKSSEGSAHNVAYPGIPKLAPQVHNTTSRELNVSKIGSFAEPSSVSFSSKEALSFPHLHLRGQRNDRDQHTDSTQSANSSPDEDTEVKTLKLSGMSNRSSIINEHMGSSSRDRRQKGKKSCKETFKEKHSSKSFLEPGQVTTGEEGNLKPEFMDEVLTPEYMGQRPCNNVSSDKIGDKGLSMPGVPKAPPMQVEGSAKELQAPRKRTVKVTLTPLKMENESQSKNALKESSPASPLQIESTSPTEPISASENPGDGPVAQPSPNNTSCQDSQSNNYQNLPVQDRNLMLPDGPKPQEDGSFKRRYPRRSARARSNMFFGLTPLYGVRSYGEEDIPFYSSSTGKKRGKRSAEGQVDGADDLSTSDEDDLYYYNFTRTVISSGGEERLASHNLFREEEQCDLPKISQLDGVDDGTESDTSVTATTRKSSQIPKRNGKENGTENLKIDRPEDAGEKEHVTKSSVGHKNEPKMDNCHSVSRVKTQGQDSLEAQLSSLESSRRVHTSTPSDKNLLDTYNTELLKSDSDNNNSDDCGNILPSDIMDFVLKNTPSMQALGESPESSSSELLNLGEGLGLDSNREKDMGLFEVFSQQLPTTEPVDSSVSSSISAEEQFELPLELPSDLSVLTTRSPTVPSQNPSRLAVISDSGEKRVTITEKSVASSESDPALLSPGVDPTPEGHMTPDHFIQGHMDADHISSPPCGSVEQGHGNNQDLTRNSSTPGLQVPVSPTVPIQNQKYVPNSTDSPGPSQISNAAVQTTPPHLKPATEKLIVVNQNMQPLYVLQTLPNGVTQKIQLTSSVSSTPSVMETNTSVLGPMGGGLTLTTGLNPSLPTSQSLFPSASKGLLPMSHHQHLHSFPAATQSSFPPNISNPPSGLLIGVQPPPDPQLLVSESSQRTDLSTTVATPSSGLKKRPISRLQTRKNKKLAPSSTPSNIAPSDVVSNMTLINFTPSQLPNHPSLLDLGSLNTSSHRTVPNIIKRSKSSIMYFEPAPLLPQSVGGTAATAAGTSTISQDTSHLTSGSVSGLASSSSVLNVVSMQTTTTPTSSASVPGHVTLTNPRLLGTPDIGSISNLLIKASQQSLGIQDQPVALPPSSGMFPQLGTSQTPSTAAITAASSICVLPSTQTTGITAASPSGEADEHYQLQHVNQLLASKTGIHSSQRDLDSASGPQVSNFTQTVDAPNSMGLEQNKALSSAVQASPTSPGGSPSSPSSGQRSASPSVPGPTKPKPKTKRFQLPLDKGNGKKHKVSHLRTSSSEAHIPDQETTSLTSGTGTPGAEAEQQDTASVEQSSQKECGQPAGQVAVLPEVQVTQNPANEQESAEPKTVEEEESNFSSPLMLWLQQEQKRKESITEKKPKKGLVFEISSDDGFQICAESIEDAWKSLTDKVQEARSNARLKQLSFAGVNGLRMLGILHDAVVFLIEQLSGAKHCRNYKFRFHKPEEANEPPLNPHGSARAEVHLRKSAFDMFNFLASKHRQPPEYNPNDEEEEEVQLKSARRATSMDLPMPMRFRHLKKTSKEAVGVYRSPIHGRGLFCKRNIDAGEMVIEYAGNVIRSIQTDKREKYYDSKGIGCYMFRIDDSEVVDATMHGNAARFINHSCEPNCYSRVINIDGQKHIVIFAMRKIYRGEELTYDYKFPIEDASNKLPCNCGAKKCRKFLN

molecular target: Histone-lysine N-methyltransferase 2A (Homo sapiens) (UniProt Q03164); test: qHTS Fluorescence Polarization Assay for Inhibitors of MLL CXXC domain - DNA interaction; details: MLL-CXXC / FITC-HOXA9 DNA fluorescence polarization; activity change, negative = inhibition: at 115 µM (top of the series)
Method in brief: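 Fluorescence polarization: 7 uM MLL-CXXC (stock) preincubated 5 min with compounds, then 50 nM fluorescein-HOX-A9 DNA (stock) added; 30 min ambient. Buffer 50 mM Tris-HCl pH 7.5, 50 mM NaCl, 1 mM DTT, 0.05% BSA.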
Potency means the concentration at half of the fitted maximal effect.

| SMILES | activity change, negative = inhibition | Potency |
| --- | --- | --- |
| Cc1ccc(N(C(=O)CNC(=O)c2ccco2)C(C(=O)NC2CCCC2)c2cccnc2)c(C)c1 (stereo not drawn) | inconclusive: 9.79% [phenotype inactive] |  |
| CCOC(=O)COc1ccccc1C1Nc2ccccc2C(=O)N1c1cccc(Cl)c1 (stereo not drawn) |  | inactive |
| COc1ccc(CCN2CCCn3c2nc2c3c(=O)n(CC(C)C)c(=O)n2C)cc1OC |  | inconclusive: 3.16 µM [fluorescent, side channel, full curve, poor fit] |
| CCC(=O)Oc1ccc(/C(CC)=C(\CC)c2ccc(OC(=O)CC)cc2)cc1 |  | inconclusive: 3.16 µM [quencher, side channel, full curve, poor fit] |
| CC(CCN1C(Nc2ccccc2)=NC[C@@H]1Cc1ccccc1)c1ccccc1 (stereo partly drawn) |  | inconclusive: 1.41 µM [quencher, side channel, full curve, poor fit] |
| N#CC1=C(N)OC2=C(C(=O)CCC2)C1CCc1ccccc1 (stereo not drawn) |  | inactive |
| Cc1c(-n2cc(C(=O)c3cc(F)ccc3O)cc(C#N)c2=O)c(=O)n(-c2ccccc2)n1C |  | inconclusive: 39.8 µM [fluorescent, side channel, partial curve] |
| Cc1cccc(N=Nc2c(O)[nH]c3ccc(F)cc23)c1 |  | inconclusive: 35.5 µM [fluorescent, side channel, partial curve, poor fit] |
| O=C(CN(C(=O)c1csnn1)c1cccc2c1CCCC2)NC1CCCC1 |  | inconclusive: 89.1 µM [fluorescent, side channel, single point] |
| COc1ccc(CCC(=O)NCC(=O)OCc2ccccc2)cc1 |  | inconclusive: 8.91 µM [fluorescent, side channel, full curve] |
| O=C(Nc1ccccc1)c1cccc(N2C(=O)C3C4CC(C(Br)C4Br)C3C2=O)c1 (stereo not drawn) |  | inconclusive: 11.2 µM [fluorescent, side channel, single point] |
| CC(=O)c1c(C)nc(-c2ccc(Cl)cc2)nc1N |  | inconclusive: 14.1 µM [inhibitor, single point] |
| CC(=O)c1c(C)nn(CC(=O)NC2CCCN(Cc3ccc(CC(C)C)cc3)C2)c1C (stereo not drawn) |  | inconclusive: 39.8 µM [quencher, side channel, single point] |
| O=C(NCCc1nc2ccccc2[nH]1)C1CCC(=O)N(CCc2cccc(F)c2)C1 (stereo not drawn) |  | inconclusive: 14.1 µM [fluorescent, side channel, single point] |
| COc1ccc(C(=O)Nc2ccc([N+](=O)[O-])cn2)c(OC)c1 |  | inconclusive: 8.91 µM [fluorescent, side channel, full curve] |
| CCOC(=O)CNC(=O)OC1CCN2Cc3ccccc3N=C12 (stereo not drawn) |  | inconclusive: 15.8 µM [fluorescent, side channel, single point] |
| CC(C)(C)C1CCc2c(sc(NC(=O)c3ccncc3)c2C(N)=O)C1 (stereo not drawn) |  | inconclusive: 31.6 µM [fluorescent, side channel, single point] |
| CC(=O)Nc1c2c3c(cccc3n(C)c1=O)C(=O)c1ccccc1-2 |  | inactive |
| CCOC(=O)C1CCN(CC(=O)Nc2c(C(=O)OC)[nH]c3ccccc23)CC1 |  | inactive |

| SMILES | activity change, negative = inhibition | Potency |
| --- | --- | --- |
| Cc1ccc(S(=O)(=O)N2CCCCC2)cc1NC(=O)C1CC(=O)N(Cc2ccccc2)C1 (stereo not drawn) |  | inconclusive: 1 µM [fluorescent, side channel, full curve, poor fit] |
| COc1ccc2cc(C(=O)CS(=O)(=O)c3ccccc3)c(=O)oc2c1 |  | inconclusive: 10 µM [fluorescent, side channel, full curve] |
| O=C(O)c1cc(S(=O)(=O)N2CCN(S(=O)(=O)c3ccccc3)CC2)ccc1Cl |  | inconclusive: 63.1 µM [inhibitor, single point] |
| CN(C)CCCNC(=O)/C=C/c1ccc2c(c1)OCO2 |  | inactive |
| COc1ccc(-c2nnn(CC(=O)c3c[nH]c4ccccc34)n2)cc1OC |  | inactive |
| CCN(CC)C(=O)CSc1nnc(COc2cccc(C)c2)n1C |  | inconclusive: 70.8 µM [quencher, side channel, single point] |
| CCCN(CC(=O)Nc1ccccc1C)C(=O)c1ccc(COc2ccccc2)cc1 |  | inconclusive: 70.8 µM [quencher, side channel, single point] |
| COC(=O)c1sccc1NC(=O)CSc1nnnn1-c1ccccc1F |  | inactive |
| CCOc1ccc(C2CC(c3c(O)c4ccccc4oc3=O)=NN2c2ccccc2)cc1OC (stereo not drawn) |  | inconclusive: 39.8 µM [fluorescent, single point] |
| O=C(CC12CC3CC(CC(C3)C1)C2)NCc1ccco1 |  | inconclusive: 31.6 µM [inhibitor, partial curve, poor fit] |
| O=C(O)c1ccc(S(=O)(=O)c2ccc([N+](=O)[O-])cc2[N+](=O)[O-])cc1 |  | inconclusive: 44.7 µM [quencher, side channel, single point] |
| CC(C)(C)NC(=O)NC(=O)C[n+]1ccc(Cc2ccc([N+](=O)[O-])cc2)cc1 |  | inconclusive: 63.1 µM [fluorescent, side channel, single point] |
| Cc1nn2cnnc2c(C)c1Cc1ccc(Cl)cc1 |  | inconclusive: 11.2 µM [fluorescent, side channel, single point] |
| CC1CCc2c(sc(NC(=O)c3ccc(-c4ccccc4[N+](=O)[O-])o3)c2C#N)C1 (stereo not drawn) |  | inconclusive: 3.16 µM [quencher, side channel, partial curve] |
| Cc1ccccc1NC(=O)N1C2CCCC1CC(NC(=O)C1CC1)C2 (stereo not drawn) |  | inactive |
| O=C(c1sc2ccccc2c1Cl)N1CCN(c2ccccn2)CC1 |  | inconclusive: 11.2 µM [quencher, side channel, single point] |
| COc1ccc(C(=O)O/N=C(\N)c2cccc(C)c2)cc1OC |  | inactive |
| Oc1ccc2ccccc2c1C=Nc1cc(C(F)(F)F)ccc1N1CCCC1 |  | inconclusive: 8.91 µM [fluorescent, side channel, full curve] |
| CC(=O)Oc1ccc(S(=O)(=O)c2ccc(OC(C)=O)cc2)cc1 |  | inactive |
